According to patent publication US20130164309A1:
Results are given in words; binding and its absence hold for the method and conditions named. Some binding calls cover weakened binding; strength is not graded here.

The chains behind the UniProt entries cited, without tags or fusion partners. Where a name states a change or a piece, a line headed by the entry shows the natural chain unless it says otherwise.
UniProt Q9NPF0: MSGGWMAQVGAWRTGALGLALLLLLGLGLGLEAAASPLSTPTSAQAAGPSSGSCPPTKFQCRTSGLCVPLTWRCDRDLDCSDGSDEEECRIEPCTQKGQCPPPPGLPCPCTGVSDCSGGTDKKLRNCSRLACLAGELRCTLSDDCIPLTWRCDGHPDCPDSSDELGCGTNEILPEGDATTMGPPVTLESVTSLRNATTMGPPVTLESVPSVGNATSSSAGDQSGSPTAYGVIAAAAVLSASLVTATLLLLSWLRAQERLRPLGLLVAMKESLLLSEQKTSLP
UniProt P20062: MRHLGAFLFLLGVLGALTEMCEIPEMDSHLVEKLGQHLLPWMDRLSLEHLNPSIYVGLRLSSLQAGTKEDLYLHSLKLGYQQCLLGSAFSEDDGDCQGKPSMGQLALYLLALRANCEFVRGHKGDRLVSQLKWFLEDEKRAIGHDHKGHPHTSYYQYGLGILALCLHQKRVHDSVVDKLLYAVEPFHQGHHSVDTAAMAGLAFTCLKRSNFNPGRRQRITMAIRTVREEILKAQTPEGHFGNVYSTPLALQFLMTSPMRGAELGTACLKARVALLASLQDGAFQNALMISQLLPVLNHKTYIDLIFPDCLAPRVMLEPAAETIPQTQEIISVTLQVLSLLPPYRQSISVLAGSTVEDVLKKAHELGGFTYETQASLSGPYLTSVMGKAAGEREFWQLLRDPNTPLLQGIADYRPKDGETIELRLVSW

Biological target: recombinant extracellular domain of human TCblR (aa 32-233), untagged secreted form (human) (UniProt Q9NPF0)
Test: affinity purification of TCblR ECD with TC-Cbl as affinity ligand

Substance: DsRed TC fusion protein saturated with Cbl (from UniProt P20062 19-427; Q9U6Y8 1-225) (ligand)
- binding: binds
